Tested on: tactile allodynia (Chung model)
Experiment: Chung model: reversal of tactile allodynia after spinal nerve ligation (von Frey hairs)
Assay type: in vivo
Conditions: rat
Source text: An art-accepted model or assay for measuring an analgesic effect of a compound in chronic pain (in particular peripheral neuropathy) is the model known as Kim and Chung 1992, Pain […], pp 355-363 (Chung model). This model involves the surgical ligation of the L5 (and optionally the L6) spinal nerves on one side in experimental animals. Rats recovering from the surgery gain weight and display a level of general activity similar to that of normal rats. However, these rats develop abnormalities of the foot, wherein the hindpaw is moderately everted and the toes are held together. More importantly, the hindpaw on the side affected by the surgery appears to become sensitive to low-threshold mechanical stimuli and will perceive pain instead of the faint sensation of touch. This sensitivity to normally non-painful touch, called “tactile allodynia”, develops within the first week after surgery and lasts for at least two months. The allodynia response includes lifting the affected hindpaw to escape from the stimulus, licking the paw and holding it in the air for many seconds. None of these responses is normally seen in the control group.
To produce the tactile allodynia, rats are anesthetized before surgery. The surgical site is shaved and prepared either with betadine or Novacaine. Incision is made from the thoracic vertebra XIII down toward the sacrum. Muscle tissue is separated from the spinal vertebra (left side) at the L4-S2 levels. […]
Tactile allodynia is assessed via von Frey hairs, which are a series of fine hairs with incremental differences in stiffness. […] The applied force has been calculated to range from 0.41 to 15.1 grams. […] The 50% paw withdrawal threshold is determined using the method of Dixon, W. J., Ann. […] Tactile allodynia is measured prior to and 15, 30, and 60 minutes after drug administration. The post-drug threshold is compared to the pre-drug threshold and the percent reversal of tactile sensitivity is calculated based on a normal threshold of 15.1 grams. […]

SMILES | time post dose of peak pain reversal (30 μg/kg IP) [min] | time post dose of peak pain reversal (300 μg/kg IP) [min]
N[C@@H](CN1CCCC1)[C@@H](O)c1ccncc1 (racemic) [Compound 46, DL-threo-2-amino-1-(pyridin-4-yl)-3-(pyrrolidin-1-yl)propan-1-ol] | 60 | –
Cl.O=C(N[C@@H](CN1CCOCC1)[C@@H](O)c1ccccc1)OCc1ccccc1 [Compound 1, benzyl L-threo-1-hydroxy-3-morpholino-1-phenylpropan-2-ylcarbamate hydrochloride] | – | 30
CC(=O)O[C@@H](c1ccccc1)[C@H](CN1CCOCC1)NC(=O)OCc1ccccc1.Cl [Compound 3, benzyl L-threo-1-acetoxy-3-morpholino-1-phenylpropan-2-ylcarbamate hydrochloride] | – | 60
